# In article PMC8266045:
# By UniProt entry, the sequences of proteins in these tests, tags left out.
# UniProt P20700: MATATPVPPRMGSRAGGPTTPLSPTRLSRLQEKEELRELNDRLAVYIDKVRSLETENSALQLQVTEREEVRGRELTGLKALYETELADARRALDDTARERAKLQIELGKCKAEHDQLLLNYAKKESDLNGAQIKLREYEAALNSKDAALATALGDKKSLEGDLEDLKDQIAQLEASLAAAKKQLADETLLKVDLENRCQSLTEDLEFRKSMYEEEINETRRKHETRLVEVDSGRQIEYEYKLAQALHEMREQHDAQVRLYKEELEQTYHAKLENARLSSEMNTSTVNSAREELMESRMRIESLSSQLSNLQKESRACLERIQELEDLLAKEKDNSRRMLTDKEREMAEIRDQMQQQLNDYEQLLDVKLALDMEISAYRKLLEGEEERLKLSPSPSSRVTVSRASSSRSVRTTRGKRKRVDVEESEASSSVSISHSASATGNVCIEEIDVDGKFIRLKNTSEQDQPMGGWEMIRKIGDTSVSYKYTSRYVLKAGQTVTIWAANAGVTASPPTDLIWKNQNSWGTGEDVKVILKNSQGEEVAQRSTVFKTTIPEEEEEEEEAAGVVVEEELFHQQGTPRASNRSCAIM
# UniProt Q05397: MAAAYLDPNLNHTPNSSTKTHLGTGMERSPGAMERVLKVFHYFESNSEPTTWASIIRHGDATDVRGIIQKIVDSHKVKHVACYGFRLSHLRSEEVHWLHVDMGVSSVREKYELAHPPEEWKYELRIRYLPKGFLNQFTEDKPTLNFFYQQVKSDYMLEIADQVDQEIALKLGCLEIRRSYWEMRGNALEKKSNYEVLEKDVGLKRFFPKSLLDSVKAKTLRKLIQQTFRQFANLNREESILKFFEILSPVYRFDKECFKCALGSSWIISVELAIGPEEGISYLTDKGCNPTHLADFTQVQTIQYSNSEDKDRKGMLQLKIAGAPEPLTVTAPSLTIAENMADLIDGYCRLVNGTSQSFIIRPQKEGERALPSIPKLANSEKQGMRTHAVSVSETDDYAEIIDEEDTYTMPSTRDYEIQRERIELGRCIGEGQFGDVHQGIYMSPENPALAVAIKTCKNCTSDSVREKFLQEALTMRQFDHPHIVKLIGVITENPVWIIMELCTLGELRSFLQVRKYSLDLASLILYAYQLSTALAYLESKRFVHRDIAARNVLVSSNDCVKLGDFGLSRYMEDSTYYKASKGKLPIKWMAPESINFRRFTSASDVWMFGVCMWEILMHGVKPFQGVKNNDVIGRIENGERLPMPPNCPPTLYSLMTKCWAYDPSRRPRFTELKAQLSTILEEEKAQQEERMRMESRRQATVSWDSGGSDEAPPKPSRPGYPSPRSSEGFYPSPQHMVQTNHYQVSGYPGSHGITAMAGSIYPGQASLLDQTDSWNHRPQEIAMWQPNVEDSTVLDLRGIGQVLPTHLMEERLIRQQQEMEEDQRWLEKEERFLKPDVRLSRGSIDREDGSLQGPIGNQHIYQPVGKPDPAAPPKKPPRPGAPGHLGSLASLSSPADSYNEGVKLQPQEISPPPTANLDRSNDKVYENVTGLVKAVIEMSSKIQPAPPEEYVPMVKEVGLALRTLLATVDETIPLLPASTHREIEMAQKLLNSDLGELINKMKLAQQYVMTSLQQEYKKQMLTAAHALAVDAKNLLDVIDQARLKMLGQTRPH
# Results are given in words; binding and its absence hold for the method and conditions named. Binding seen in cells or lysates may run through a third protein. Some entries that bind do so weakly or less than the wild type.
# What was measured:
# [1] = biological target: laminB1 (human (endogenous in MDA-MB-231)) (UniProt P20700); test: co-IP; MDA-MB-231 lysate in RIPA buffer (50mM Tris HCl pH 8, 150 mM NaCl, 1% NP-40, 0.5% sodium deoxycholate); immunoprecipitated overnight at 4°C with laminB1 antibody; immunoblot with anti FAK and anti laminB1; IgG as negative control
# [2] = biological target: Focal Adhesion Kinase (human (endogenous in MDA-MB-231)) (UniProt Q05397); test: co-IP; MDA-MB-231 lysate in RIPA buffer (50mM Tris HCl pH 8, 150 mM NaCl, 1% NP-40, 0.5% sodium deoxycholate); immunoprecipitated overnight at 4°C with FAK antibody; immunoblot with anti FAK and anti laminB1; IgG as negative control
binding [1],binding [2],Substance
binds,,Focal Adhesion Kinase (from UniProt Q05397 1-1052)
,binds,laminB1 (from UniProt P20700 1-586)
